Experimental data published in patent publication US4489062A, “Pharmaceutical compounds, preparation, use and intermediates therefor and their preparation” (priority 1982, dated 1984).

Experiments:
female CD1 mice = experiment: Irritant-induced writhing test, acetic acid; assay type: in vivo; details: Mus musculus, sc, 0.5 h; compound administered 30 mins. prior to acetic acid
Excerpt: (1) Both the hotplate test (Woolfe and MacDonald, J. Pharmacol. Exp. Ther. 80:300, 1944) and the irritant-induced writhing (stretch) test (Vander Wende and Margolin, Fed. Proc. 15:494, 1956) are standard in the art for the investigation of analgesic activity. Whereas it is believed that the pain in the latter can be ameliorated either centrally or peripherally, it is thought that that induced in the hotplate test is affected only at the central level.
(i) Acetic Acid. Groups of five female CD1 mice (Charles River) received either a test compound or saline vehicle (0.85%) control by subcutaneous injection 15 mins. (unless otherwise indicated) prior to an intraperitoneal injection of 0.6% acetic acid at a dose volume of 25 ml/kg. After a further 20 mins. the writhing or stretching movements induced by the irritant were counted over a 21/2 min. period, a writhe/stretch being identified as an extension of a hindlimb accompanied by constriction of the abdomen.
The ED50 figures for the test compounds were calculated, using linear regression analysis, as the dose in the presence of which only half the number of writhes/stretches was induced compared with the controls.

male TFW mice = experiment: Antagonism by quaternary opioid (N-methylnalorphine) in acetic acid writhing test; assay type: in vivo; details: ratio of equiactive doses in presence and absence of N-methylnalorphine; calculated from the linear regression of the dose/response curves
Excerpt: (3) The analgesia induced by the peptides in the writhing test upon peripheral (parenteral) administration is antagonised by parenteral administration of the quaternary opioid antagonist N-allyl-normorphine methiodide (N-methylnalorphine; Koczka et al, Acta Chim. Acad. Sci. Hung. 51:393, 1967), i.e. a higher dose of the peptide is required in the presence than in the absence of the opioid for the same effect. As penetration of the blood-brain barrier by the quaternary compound is minimal (c.f. Tavani et al, European J. Pharmacol. 59:151-154, 1979) both the peptide-induced analgesia and the antagonism thereof are effected at the peripheral level.
Groups of six male TFW mice (Tuck) received by intraperitoneal injection either N-methylnalorphine (16 mg/kg) or saline vehicle (0.85%) control at a volume of 10 ml/kg followed after 20 mins. by a solution of the test compound in saline (10 ml/kg, subcutaneous) and after a further 30 mins. by 0.6% acetic acid (25 ml/kg, intraperitoneal). The total number of writhes/stretches per group was then determined over the 5 min. period commencing 15 mins. after administration of the acetic acid. […]

CN1CC[C@]23c4c5ccc(O)c4O[C@H]2[C@@H](O)C=C[C@H]3[C@H]1C5 [Morphine, reference compound]
ED50 (female CD1 mice): 0.45 mg/kg | Dose ratio (a):(b) (male TFW mice): 0.9
